Assay results as given in PMC6797718.
These are yes or no findings as the source states them, for the method shown. In cells and extracts the contact can be indirect. Some results given as binding are weak or reduced against the parent protein; the word gives no strength.

Biological target: T1, CD24 (human (endogenous in KGN and COV434)) (UniProt P25063)
T1 sequence: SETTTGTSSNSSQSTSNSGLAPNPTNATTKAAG
Assay: co-IP; KGN or COV434 cell lysates (50 mM HEPES pH 7.4, 150 mM NaCl, 5 mM MgCl2, 1% Triton X-100), 500 ug protein, 2 h at 4 C with anti-CD24 antibodies conjugated to agarose beads; western blot for EGFR

**Q.** “EGFR (from UniProt P00533 25-1210) (receptor)” was tested. Which binding did it give?
**A.** binds
